Assay results taken from US10131690B2, “C6S specific transporter molecules” (PHI PHARMA SA, priority 2014, dated 2018).
Entries after “also recorded” stand apart in the source; their conditions may differ. Part of at least one peptide drawing is inferred or uncertain, most often the ends. Where a SMILES comes first, the peptide text is derived from it. [ ]: non-standard residue; d: D form.

Tests used:
[1] = system: chondroitin-6-sulfate (C6S); assay: modified ELISA, binding of peptides to plate-coated C6S; details: plates coated with 1 mg/ml C6S, 1 mg/ml peptide, 1 hour, room temperature, FIG. 5, 6A, 6B
Procedure: (§1) The binding of the nine-mer peptides of the invention to C6S as predicted by the models, in particular, as compared to the binding to other proteoglycans was tested using a modified ELISA protocol. ELISA plates were coated overnight with 1 mg/ml of heparin sulfate (HS), chondroitin-4-sulfate (C4S), chondroitin-6-sulfate (C6S) or keratin sulfate (KS) in PBS. The wells were then washed with PBS and incubated for 1 hour at room temperature with 1 mg/ml of an exemplary peptide of the invention having the sequence RYKvFIKYRh (“RYK-C6S”; SEQ ID NO:7) or a standard TAT peptide. The plates were then thoroughly washed with PBS and subsequently photographed with a LUMASCOPE™ luminescent microscope. Images were then quantified using the ImageJ software (FIG. 5).
The same modified ELISA protocol was used to examine the impact on the specific binding to C6S by modifying the freely-selectable positions 2, 4, 6, 8 and (5 or 7).
(§2) The impact of sequence variation on specific binding was also investigated with select peptides using the above described modified ELISA.

[2] = system: heparan sulfate (HS), chondroitin-4-sulfate (C4S), keratin sulfate (KS), HA; assay: modified ELISA, binding to C6S compared with other proteoglycans; details: KS (FIG. 5), HS and HA (FIG. 6B)
Procedure: as §1, §2

SMILES	binding to C6S [1]	selectivity of binding for C6S over other proteoglycans [2]	binding to C6S ([1]; listed as RYK)	selectivity of binding for C6S over other proteoglycans ([2]; listed as RYK)
N=C(N)NCCC[C@H](NC(=O)[C@H](Cc1ccc(O)cc1)NC(=O)[C@H](CCCCN)NC(=O)[C@H](Cc1c[nH]c2ccccc12)NC(=O)[C@H](CO)NC(=O)CNC(=O)[C@H](CCCCN)NC(=O)[C@H](Cc1ccccc1)NC(=O)[C@@H](N)CCCNC(=N)N)C(=O)O [RFKGSWKYR] (H-RFKGSWKYR-OH; N-terminus and C-terminus assumed)	specific	selective	–	–
CC[C@H](C)[C@H](NC(=O)[C@H](Cc1ccccc1)NC(=O)[C@H](NC(=O)[C@H](CCCCN)NC(=O)[C@H](Cc1ccc(O)cc1)NC(=O)[C@@H](N)CCCNC(=N)N)C(C)C)C(=O)N[C@@H](CCCCN)C(=O)N[C@@H](Cc1ccc(O)cc1)C(=O)N[C@@H](CCCNC(=N)N)C(=O)N[C@H](Cc1c[nH]cn1)C(=O)O [RYK-C6S, RYKvFIKYRh] (H-RYK[dV]FIKYR[dH]-OH; N-terminus and C-terminus assumed)	specifically binds to the C6S proteoglycan	selectively binds C6S over the other proteoglycans tested; also recorded: specifically and selectively binds C6S over other proteoglycans	strong	selective
